PMC9454446
No constants are given. Whether binding was seen depends on the method and setting. In cells and extracts the contact can be indirect. For some assays here: A result given as binding can be weak or reduced; the word gives no strength. For some assays here: Where a sequence is shown, tags or fusion partners need not be part of it.

By UniProt entry, the sequences of proteins in these tests, tags left out. Where a name states a change or a piece, a line headed by the entry shows the natural chain unless it says otherwise.
UniProt P78536: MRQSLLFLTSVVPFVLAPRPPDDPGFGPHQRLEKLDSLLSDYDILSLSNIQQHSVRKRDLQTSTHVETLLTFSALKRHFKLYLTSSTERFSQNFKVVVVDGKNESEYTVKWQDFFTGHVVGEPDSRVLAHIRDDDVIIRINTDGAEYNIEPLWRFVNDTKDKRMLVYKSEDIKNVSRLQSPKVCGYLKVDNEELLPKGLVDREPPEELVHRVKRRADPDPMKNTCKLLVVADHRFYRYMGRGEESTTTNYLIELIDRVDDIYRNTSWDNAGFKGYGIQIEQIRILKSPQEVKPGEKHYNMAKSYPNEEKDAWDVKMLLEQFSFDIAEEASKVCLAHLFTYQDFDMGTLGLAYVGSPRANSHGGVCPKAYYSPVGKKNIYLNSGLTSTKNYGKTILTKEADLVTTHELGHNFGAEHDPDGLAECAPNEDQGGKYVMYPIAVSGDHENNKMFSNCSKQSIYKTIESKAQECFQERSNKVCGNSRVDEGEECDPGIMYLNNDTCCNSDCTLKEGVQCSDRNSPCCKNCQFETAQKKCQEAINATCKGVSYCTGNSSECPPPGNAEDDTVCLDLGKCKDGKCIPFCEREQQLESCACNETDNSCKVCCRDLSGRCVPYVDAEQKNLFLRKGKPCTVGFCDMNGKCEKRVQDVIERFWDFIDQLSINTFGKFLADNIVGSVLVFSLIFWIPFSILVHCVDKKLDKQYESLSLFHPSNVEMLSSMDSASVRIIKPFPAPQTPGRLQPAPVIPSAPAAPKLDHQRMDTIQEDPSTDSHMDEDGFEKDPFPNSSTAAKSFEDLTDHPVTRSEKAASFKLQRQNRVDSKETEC

Tests used:
[1] = target: ADAM17 fused to a fragment of Gaussia princeps luciferase (UniProt P78536); experiment: split reporter; Gaussia princeps luciferase protein complementation in transfected HEK293T cells; cells lysed in passive lysis buffer, coelenterazine added; normalized luciferase ratio (NLR) above 3.5 taken as specific interaction
[2] = target: ADAM17-YPet (UniProt P78536); experiment: FRET or BRET; FRET microscopy of live transfected HEK293T cells; Tetraspanin-CyPet as donor, ADAM17-YPet or TNFα-YPet as acceptor; precision FRET after subtraction of spectral bleed through
[3] = target: ADAM17-YPet (UniProt P78536); experiment: FRET or BRET; FRET microscopy as in HEK293T, but in ADAM10/ADAM17-deficient HEK293T cells (Figure S2A)
[4] = target: ADAM17 fused to a fragment of Gaussia princeps luciferase, P78536; experiment: split reporter; Gaussia princeps luciferase protein complementation in transfected HEK293T cells; cells lysed in passive lysis buffer, coelenterazine added; normalized luciferase ratio (NLR) above 3.5 taken as specific interaction; conditions: remark: other sources report otherwise

B1: Tspan8 fused to a fragment of Gaussia princeps luciferase (protein, UniProt P19075 1-237)
chain: MAGVSACIKYSMFTFNFLFWLCGILILALAIWVRVSNDSQAIFGSEDVGSSSYVAVDILIAVGAIIMILGFLGCCGAIKESRCMLLLFFIGLLLILLLQVATGILGAVFKSKSDRIVNETLYENTKLLSATGESEKQFQEAIIVFQEEFKCCGLVNGAADWGNNFQHYPELCACLDKQRPCQSYNGKQVYKETCISFIKDFLAKNLIIVIGISFGLAVIEILGLVFSMVLYCQIGNK
- binding [1]: binds

B2: CD81 fused to a fragment of Gaussia princeps luciferase (protein, UniProt P60033 1-236)
chain: MGVEGCTKCIKYLLFVFNFVFWLAGGVILGVALWLRHDPQTTNLLYLELGDKPAPNTFYVGIYILIAVGAVMMFVGFLGCYGAIQESQCLLGTFFTCLVILFACEVAAGIWGFVNKDQIAKDVKQFYDQALQQAVVDDDANNAKAVVKTFHETLDCCGSSTLTALTTSVLKNNLCPSGSNIISNLFKEDCHQKIDDLFSGKLYLIGIAAIVVAVIMIFEMILSMVLCCGIRNSSVY
- binding [1]: binds

B3: Tspan8-CyPet (protein, UniProt P19075 1-237)
chain: MAGVSACIKYSMFTFNFLFWLCGILILALAIWVRVSNDSQAIFGSEDVGSSSYVAVDILIAVGAIIMILGFLGCCGAIKESRCMLLLFFIGLLLILLLQVATGILGAVFKSKSDRIVNETLYENTKLLSATGESEKQFQEAIIVFQEEFKCCGLVNGAADWGNNFQHYPELCACLDKQRPCQSYNGKQVYKETCISFIKDFLAKNLIIVIGISFGLAVIEILGLVFSMVLYCQIGNK
- binding [2]: binds
- binding [3]: binds

B4: CD9 fused to a fragment of Gaussia princeps luciferase, P21926 1-228 (protein)
chain: MPVKGGTKCIKYLLFGFNFIFWLAGIAVLAIGLWLRFDSQTKSIFEQETNNNNSSFYTGVYILIGAGALMMLVGFLGCCGAVQESQCMLGLFFGFLLVIFAIEIAAAIWGYSHKDEVIKEVQEFYKDTYNKLKTKDEPQRETLKAIHYALNCCGLAGGVEQFISDICPKKDVLETFTVKSCPDAIKEVFDNKFHIIGAVGIGIAVVMIFGMIFSMILCCAIRRNREMV
- binding [4]: no binding
